Experimental data published in the supplement of paper PMC10849652.
The other results are listed elsewhere or left out.

Sequences of proteins named here, by UniProt entry; tags and fusion partners are left off. A change or cut given only in a name is not applied to a line headed by its entry.
UniProt O75379: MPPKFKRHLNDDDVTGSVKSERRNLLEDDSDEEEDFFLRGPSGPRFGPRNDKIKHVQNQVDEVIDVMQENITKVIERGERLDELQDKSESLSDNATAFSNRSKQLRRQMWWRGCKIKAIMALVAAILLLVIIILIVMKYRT
UniProt P06132: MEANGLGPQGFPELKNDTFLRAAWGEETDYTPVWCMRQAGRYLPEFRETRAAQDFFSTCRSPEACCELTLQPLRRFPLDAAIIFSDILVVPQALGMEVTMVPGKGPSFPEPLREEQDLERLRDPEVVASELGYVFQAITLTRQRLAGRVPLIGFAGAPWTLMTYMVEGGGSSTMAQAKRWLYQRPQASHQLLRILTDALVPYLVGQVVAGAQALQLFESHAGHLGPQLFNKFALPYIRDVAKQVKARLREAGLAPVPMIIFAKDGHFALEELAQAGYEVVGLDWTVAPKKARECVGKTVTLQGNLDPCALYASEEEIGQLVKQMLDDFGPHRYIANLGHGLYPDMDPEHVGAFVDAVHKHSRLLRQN
UniProt Q15853: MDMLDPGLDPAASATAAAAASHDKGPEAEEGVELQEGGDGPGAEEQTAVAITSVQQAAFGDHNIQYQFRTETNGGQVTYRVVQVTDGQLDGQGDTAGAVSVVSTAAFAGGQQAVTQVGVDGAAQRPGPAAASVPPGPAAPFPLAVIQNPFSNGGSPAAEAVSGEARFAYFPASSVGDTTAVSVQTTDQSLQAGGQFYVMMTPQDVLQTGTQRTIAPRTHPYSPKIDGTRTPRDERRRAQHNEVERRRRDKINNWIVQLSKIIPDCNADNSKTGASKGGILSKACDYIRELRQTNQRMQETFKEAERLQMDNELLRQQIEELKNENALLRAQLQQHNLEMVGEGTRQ
UniProt Q96JH7: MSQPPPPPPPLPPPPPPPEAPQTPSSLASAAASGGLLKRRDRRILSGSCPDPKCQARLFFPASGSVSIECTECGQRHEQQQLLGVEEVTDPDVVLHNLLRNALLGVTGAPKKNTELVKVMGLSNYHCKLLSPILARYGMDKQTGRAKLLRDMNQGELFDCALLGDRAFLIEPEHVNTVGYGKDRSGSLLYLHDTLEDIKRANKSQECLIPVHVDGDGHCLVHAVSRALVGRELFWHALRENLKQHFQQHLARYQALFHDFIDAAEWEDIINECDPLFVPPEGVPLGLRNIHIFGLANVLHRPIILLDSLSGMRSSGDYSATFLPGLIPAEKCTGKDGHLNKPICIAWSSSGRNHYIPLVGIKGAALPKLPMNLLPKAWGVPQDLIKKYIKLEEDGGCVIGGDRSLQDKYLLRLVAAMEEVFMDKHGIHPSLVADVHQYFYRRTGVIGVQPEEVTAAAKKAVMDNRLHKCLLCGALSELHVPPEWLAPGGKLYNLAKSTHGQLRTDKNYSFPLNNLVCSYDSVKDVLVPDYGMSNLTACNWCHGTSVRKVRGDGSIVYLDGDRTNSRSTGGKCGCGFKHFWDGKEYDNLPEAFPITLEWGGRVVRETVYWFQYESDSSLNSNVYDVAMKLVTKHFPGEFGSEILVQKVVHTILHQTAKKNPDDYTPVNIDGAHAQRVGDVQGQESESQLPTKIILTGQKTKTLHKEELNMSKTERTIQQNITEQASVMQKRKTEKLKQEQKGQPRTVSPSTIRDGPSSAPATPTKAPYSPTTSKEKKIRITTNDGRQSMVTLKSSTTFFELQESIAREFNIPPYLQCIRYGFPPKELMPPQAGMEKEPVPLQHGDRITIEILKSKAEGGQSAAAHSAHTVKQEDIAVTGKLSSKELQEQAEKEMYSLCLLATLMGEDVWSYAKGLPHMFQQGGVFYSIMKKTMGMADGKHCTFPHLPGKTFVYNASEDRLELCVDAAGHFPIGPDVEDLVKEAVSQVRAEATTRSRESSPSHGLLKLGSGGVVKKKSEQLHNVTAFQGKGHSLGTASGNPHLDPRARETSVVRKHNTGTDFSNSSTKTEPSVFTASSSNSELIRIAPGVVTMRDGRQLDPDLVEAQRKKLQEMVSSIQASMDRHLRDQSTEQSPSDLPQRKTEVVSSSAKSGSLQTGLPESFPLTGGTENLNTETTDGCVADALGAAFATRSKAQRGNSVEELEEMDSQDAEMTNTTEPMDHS
UniProt Q9UBK9, whole entry, looked up: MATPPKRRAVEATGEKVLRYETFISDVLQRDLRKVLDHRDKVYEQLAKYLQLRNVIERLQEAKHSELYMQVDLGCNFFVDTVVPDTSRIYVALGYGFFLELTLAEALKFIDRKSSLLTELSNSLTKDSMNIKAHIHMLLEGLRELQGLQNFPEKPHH
UniProt Q9NVE5: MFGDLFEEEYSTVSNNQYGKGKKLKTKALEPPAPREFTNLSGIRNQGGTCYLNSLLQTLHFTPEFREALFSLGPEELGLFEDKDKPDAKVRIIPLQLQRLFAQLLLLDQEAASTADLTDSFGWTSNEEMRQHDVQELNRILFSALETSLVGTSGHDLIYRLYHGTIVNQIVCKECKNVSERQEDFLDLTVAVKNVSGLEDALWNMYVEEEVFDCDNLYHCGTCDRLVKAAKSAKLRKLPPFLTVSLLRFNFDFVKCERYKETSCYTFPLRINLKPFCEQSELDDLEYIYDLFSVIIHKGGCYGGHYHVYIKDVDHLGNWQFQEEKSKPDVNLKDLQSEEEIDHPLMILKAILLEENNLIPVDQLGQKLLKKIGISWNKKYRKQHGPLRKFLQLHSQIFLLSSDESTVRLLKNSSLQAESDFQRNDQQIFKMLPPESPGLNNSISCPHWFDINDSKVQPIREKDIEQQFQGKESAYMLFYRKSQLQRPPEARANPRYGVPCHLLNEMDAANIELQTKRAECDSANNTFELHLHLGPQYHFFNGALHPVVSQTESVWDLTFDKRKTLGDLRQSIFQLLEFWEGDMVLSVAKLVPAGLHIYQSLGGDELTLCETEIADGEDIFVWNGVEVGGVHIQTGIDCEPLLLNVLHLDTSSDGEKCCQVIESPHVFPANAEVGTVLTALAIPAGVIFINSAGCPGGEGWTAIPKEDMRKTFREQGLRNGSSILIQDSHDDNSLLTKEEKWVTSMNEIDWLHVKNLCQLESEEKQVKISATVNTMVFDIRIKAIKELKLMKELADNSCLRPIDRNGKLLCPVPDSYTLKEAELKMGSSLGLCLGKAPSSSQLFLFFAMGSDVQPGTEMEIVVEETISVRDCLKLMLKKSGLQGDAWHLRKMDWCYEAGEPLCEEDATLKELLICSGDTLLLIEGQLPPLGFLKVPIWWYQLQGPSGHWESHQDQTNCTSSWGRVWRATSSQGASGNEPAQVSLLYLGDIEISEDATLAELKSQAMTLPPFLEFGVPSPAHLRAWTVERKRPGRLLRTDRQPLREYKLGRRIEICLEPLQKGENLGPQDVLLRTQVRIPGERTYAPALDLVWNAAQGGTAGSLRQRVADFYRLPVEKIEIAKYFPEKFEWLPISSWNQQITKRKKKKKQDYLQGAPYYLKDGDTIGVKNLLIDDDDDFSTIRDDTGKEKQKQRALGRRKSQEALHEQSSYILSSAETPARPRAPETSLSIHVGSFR
UniProt Q9BQ65: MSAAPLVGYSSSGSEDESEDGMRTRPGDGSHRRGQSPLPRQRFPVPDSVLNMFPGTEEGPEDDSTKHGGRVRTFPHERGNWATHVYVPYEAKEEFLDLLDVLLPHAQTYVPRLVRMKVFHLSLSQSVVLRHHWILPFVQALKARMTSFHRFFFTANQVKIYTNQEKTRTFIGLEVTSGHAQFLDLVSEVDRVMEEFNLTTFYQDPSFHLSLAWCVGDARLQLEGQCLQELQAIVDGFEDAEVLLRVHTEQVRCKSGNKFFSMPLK
UniProt Q9H9J4: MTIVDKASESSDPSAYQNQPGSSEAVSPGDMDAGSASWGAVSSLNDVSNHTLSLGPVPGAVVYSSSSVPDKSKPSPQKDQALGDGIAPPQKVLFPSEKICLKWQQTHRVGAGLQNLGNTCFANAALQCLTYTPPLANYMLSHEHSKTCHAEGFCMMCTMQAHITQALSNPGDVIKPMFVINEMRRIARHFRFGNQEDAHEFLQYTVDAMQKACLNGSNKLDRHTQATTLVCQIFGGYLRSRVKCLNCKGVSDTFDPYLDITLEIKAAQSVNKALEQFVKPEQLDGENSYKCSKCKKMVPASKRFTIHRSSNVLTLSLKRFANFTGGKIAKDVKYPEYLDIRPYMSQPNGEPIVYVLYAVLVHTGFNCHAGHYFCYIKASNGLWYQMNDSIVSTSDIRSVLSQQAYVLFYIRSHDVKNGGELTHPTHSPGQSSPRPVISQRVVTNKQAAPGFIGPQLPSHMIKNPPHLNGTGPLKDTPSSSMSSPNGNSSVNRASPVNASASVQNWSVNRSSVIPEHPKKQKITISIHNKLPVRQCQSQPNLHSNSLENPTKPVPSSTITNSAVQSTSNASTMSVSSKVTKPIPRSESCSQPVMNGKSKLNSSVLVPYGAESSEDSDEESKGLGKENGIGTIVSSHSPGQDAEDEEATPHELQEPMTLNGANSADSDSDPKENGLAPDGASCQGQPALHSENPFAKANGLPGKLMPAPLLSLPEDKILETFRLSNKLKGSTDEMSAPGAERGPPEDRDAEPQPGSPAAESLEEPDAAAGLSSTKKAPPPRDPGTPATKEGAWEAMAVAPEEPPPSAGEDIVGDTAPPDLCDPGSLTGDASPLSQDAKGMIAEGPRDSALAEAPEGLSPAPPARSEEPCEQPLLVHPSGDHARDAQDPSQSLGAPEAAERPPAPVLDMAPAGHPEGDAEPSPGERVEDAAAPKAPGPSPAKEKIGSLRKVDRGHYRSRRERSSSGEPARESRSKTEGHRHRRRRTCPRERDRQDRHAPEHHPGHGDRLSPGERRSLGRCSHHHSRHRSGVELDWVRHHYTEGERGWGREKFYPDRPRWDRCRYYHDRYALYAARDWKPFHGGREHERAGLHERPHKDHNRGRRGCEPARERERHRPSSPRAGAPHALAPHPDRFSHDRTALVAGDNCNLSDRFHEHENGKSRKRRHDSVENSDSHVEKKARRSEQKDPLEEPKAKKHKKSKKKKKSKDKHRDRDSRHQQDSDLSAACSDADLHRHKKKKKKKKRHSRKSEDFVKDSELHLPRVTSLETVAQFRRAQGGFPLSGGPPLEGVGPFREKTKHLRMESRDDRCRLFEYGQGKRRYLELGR
UniProt Q16739: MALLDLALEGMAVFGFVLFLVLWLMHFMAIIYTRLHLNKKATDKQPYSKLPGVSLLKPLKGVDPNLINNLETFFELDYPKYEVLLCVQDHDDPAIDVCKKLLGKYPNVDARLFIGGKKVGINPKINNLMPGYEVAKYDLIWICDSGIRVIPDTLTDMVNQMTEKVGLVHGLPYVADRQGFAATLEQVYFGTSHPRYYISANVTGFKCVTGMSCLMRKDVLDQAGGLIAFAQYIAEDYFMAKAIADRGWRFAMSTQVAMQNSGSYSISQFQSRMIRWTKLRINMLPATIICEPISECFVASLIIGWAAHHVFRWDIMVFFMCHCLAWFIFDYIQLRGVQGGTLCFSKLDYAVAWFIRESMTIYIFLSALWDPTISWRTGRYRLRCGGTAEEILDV
UniProt Q9BRT2: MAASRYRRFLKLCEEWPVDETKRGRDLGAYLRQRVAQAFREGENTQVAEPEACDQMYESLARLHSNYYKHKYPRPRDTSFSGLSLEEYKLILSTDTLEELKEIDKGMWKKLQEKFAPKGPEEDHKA
UniProt Q92738: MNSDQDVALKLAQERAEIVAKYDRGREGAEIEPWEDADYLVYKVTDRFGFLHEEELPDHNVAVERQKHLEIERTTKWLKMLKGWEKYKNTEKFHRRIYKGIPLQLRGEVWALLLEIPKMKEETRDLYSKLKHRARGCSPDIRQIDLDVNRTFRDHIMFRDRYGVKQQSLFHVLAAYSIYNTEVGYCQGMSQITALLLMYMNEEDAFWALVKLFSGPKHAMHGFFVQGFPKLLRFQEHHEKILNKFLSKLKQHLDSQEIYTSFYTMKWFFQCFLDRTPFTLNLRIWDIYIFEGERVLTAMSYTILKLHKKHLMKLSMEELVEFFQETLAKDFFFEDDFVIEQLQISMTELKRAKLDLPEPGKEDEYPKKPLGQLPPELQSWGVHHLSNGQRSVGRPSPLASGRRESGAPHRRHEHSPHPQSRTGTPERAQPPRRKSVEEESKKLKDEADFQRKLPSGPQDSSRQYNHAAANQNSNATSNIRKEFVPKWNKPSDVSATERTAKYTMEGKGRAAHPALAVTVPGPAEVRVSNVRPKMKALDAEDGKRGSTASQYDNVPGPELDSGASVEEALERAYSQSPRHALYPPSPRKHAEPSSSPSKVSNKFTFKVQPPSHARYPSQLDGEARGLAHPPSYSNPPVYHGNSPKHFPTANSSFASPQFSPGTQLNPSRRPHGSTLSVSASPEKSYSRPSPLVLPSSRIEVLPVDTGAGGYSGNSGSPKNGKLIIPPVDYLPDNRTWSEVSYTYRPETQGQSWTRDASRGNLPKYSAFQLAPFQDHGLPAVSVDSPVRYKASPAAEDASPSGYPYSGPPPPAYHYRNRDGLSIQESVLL
UniProt Q9BTM9: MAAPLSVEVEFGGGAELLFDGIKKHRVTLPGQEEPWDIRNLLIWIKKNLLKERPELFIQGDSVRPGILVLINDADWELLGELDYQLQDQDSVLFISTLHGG

How the values were obtained:
Experiment in all cases: log2 fold change, soluble protein after heating vs DMSO (PISA); higher = thermal stabilisation; K562 lysate, 10 uM; active = over 0.2 and 3.5 SD of the protein, either way, in both replicates (recomputed)
nilotinib = compound: Cc1cn(-c2cc(NC(=O)c3ccc(C)c(Nc4nccc(-c5cccnc5)n4)c3)cc(C(F)(F)F)c2)cn1 [nilotinib]
Outline: (§1)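 A 30 min treatment with 10 μM compound was applied to crude K562 extract at 1 mg/mL protein in PBS pH 7.4 with 1 mM MgCl2. Heating for 3 min spanned 48°C-58°C, after which aliquots were pooled, adjusted to 0.5% NP-40 at 4°C and spun at 21,000xg for 90 min. TMTpro 16plex LC-MS/MS of the supernatant, with channel sums equalised, gave values recorded as log-two fold change in thermal stability against solvent controls, from duplicates.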

[1] = compound: Cc1nc(Nc2n[nH]c3c2CN(C(=O)N[C@H](CN(C)C)c2ccccc2)C3(C)C)c2sccc2n1
Outline: as §1

dasatinib = compound: Cc1nc(Nc2ncc(C(=O)Nc3c(C)cccc3Cl)s2)cc(N2CCN(CCO)CC2)n1 [dasatinib]
Outline: as §1

[2] = compound: Cc1ncc(-c2ccnc(Nc3ccc(S(C)(=O)=O)cc3)n2)n1C(C)C
Outline: as §1

[3] = compound: Cn1cc(-c2ccc3c(c2)CCN3C(=O)Cc2cccc(C(F)(F)F)c2)c2c(N)ncnc21
Outline: as §1

quisinostat = compound: Cn1cc(CNCC2CCN(c3ncc(C(=O)NO)cn3)CC2)c2ccccc21 [quisinostat]
Outline: as §1

tipifarnib = compound: Cn1cncc1[C@@](N)(c1ccc(Cl)cc1)c1ccc2c(c1)c(-c1cccc(Cl)c1)cc(=O)n2C [tipifarnib]
Outline: as §1

[4] = compound: NC(=O)Nc1cc(-c2cccc(F)c2)sc1C(=O)N[C@H]1CCCNC1
Outline: as §1

[5] = compound: NC(=O)c1cnc(N[C@@H]2CCCC[C@@H]2N)nc1Nc1cccc(-n2nccn2)c1
Outline: as §1

[6] = compound: NC1(c2ccc(-c3nc4ccn5c(=O)[nH]nc5c4cc3-c3ccccc3)cc2)CCC1
Outline: as §1

Measured: log2 fold change

VDAC2 isoform 2 (UniProt P45880)
inactive: nilotinib 0.024 | [1] -0.007 | dasatinib -0.013 | [2] 0.03 | [3] -0.008 | quisinostat 0.006 | tipifarnib 0.01 | [4] -0.009 | [5] 0 | [6] 0.021

VAMP4 (UniProt O75379)
inactive: nilotinib 0.018 | [1] 0.012 | dasatinib -0.03 | [2] -0.396 | [3] 0.056 | quisinostat 0.01 | tipifarnib -0.308 | [4] -0.043 | [5] 0.042 | [6] 0.023

UROD (UniProt P06132)
inactive: nilotinib 0.043 | [1] 0.006 | dasatinib 0.014 | [2] 0.004 | [3] -0.001 | quisinostat 0.056 | tipifarnib -0.004 | [4] -0.032 | [5] 0.005 | [6] 0.007

USF2 (UniProt Q15853)
inactive: nilotinib -0.049 | [1] -0.058 | dasatinib 0.024 | [2] -0.15 | [3] 0.035 | quisinostat -0.071 | tipifarnib 0.012 | [4] -0.003 | [5] 0.026 | [6] 0.024

VCPIP1 (UniProt Q96JH7)
inactive: nilotinib -0.006 | [1] 0.044 | dasatinib -0.045 | [2] -0.025 | [3] 0.016 | quisinostat -0.046 | tipifarnib 0.011 | [4] 0.031 | [5] 0.029 | [6] -0.059

UXT isoform 2 (UniProt Q9UBK9)
inactive: nilotinib 0.012 | [1] -0.019 | dasatinib 0.079 | [2] 0.019 | [3] -0.05 | quisinostat -0.03 | tipifarnib -0.015 | [4] -0.04 | [5] -0.026 | [6] -0.036

UNK (UniProt Q9C0B0)
inactive: nilotinib 0.005 | [1] -0.08 | dasatinib -0.063 | [2] 0.087 | [3] 0.013 | quisinostat 0.043 | tipifarnib -0.031 | [4] 0.016 | [5] 0.027 | [6] 0.052

URI1 (UniProt O94763)
inactive: nilotinib 0.002 | [1] -0.003 | dasatinib 0.017 | [2] -0.034 | [3] -0.005 | quisinostat -0.015 | tipifarnib -0.02 | [4] -0.014 | [5] -0.04 | [6] 0.006

USP40 isoform 3 (UniProt Q9NVE5)
inactive: nilotinib 0.041 | [1] -0.059 | dasatinib -0.121 | [2] 0.019 | [3] 0.003 | quisinostat -0.074 | tipifarnib -0.084 | [4] 0.063 | [6] 0.247

VHL (UniProt P40337)
inactive: nilotinib -0.01 | [1] 0.04 | dasatinib 0 | [2] -0.056 | [3] 0.079 | quisinostat -0.056 | tipifarnib 0.022 | [4] 0.077 | [6] 0.04

2 records picked at random from those above:
UXT isoform 2 (UniProt Q9UBK9)
inactive: nilotinib 0.012 | [1] -0.019 | dasatinib 0.079 | [2] 0.019 | [3] -0.05 | quisinostat -0.03 | tipifarnib -0.015 | [4] -0.04 | [5] -0.026 | [6] -0.036

VHL (UniProt P40337)
inactive: nilotinib -0.01 | [1] 0.04 | dasatinib 0 | [2] -0.056 | [3] 0.079 | quisinostat -0.056 | tipifarnib 0.022 | [4] 0.077 | [6] 0.04

(next part)

UGGT2 (UniProt Q9NYU1)
inactive: nilotinib -0.01 | [1] -0.09 | dasatinib 0.003 | [2] -0.116 | [3] -0.039 | quisinostat 0.011 | tipifarnib -0.051 | [4] 0.017 | [5] 0.009 | [6] 0.017

VANGL1 (UniProt Q8TAA9)
inactive: nilotinib -0.086 | [1] -0.067 | dasatinib -0.019 | [2] 0.079 | [3] -0.036 | quisinostat 0.014 | tipifarnib 0.042 | [4] 0.009 | [5] 0.121 | [6] 0.034

UHRF1BP1 (UniProt Q6BDS2)
inactive: nilotinib 0.077 | [1] 0.034 | dasatinib 0.009 | [2] 0.03 | [3] -0.015 | quisinostat 0.013 | tipifarnib -0.045 | [4] 0.007 | [5] 0.007 | [6] 0.022

UTP3 (UniProt Q9NQZ2)
inactive: nilotinib -0.106 | [1] 0.008 | dasatinib -0.048 | [2] -0.054 | [3] -0.023 | quisinostat 0.014 | tipifarnib 0.051 | [4] 0.065 | [5] 0.002 | [6] 0

UCKL1 (UniProt Q9NWZ5)
inactive: nilotinib -0.024 | [1] 0.007 | dasatinib 0.008 | [2] 0.022 | [3] -0.002 | quisinostat -0.05 | tipifarnib -0.011 | [4] 0.018 | [5] -0.003 | [6] 0.011

USB1 (UniProt Q9BQ65)
inactive: nilotinib 0.122 | [1] -0.067 | dasatinib -0.03 | [2] -0.081 | [3] -0.022 | quisinostat -0.094 | tipifarnib 0.001 | [4] -0.034 | [5] -0.172 | [6] 0.093

USP11 (UniProt P51784)
inactive: nilotinib 0.01 | [1] 0.015 | dasatinib 0.001 | [2] -0.026 | [3] -0.007 | quisinostat -0.028 | tipifarnib -0.014 | [4] 0.055 | [5] 0.028 | [6] 0.01

VDAC3 (UniProt Q9Y277)
inactive: nilotinib 0.051 | [1] -0.022 | dasatinib -0.018 | [2] 0.005 | [3] -0.019 | quisinostat -0.012 | tipifarnib 0.032 | [4] 0.006 | [5] -0.031 | [6] 0.015

USP42 (UniProt Q9H9J4)
inactive: nilotinib 0.04 | [1] 0.118 | [2] -0.04 | quisinostat -0.191 | tipifarnib 0 | [4] -0.013 | [5] -0.195

UNC5B (UniProt Q8IZJ1)
inactive: nilotinib 0.267 | [1] -0.092 | dasatinib -0.04 | [2] -0.108 | [3] 0.072 | quisinostat -0.056 | tipifarnib -0.097 | [4] -0.004 | [5] 0.097 | [6] -0.012

UGCG (UniProt Q16739)
inactive: nilotinib 0.036 | [1] -0.076 | dasatinib 0.046 | [2] 0.004 | [3] -0.03 | quisinostat 0.107 | tipifarnib -0.046 | [4] -0.016 | [6] -0.006

URGCP (UniProt Q8TCY9)
inactive: nilotinib 0.028 | [1] 0.079 | dasatinib -0.204 | [2] -0.04 | [3] -0.145 | tipifarnib -0.008

URI1 isoform 4 (UniProt O94763)
inactive: nilotinib 0.046 | [1] -0.071 | dasatinib -0.026 | [2] -0.015 | [3] 0.027 | quisinostat -0.028 | tipifarnib -0.031 | [4] -0.056 | [5] -0.032 | [6] 0.115

UQCC1 (UniProt Q9NVA1)
inactive: nilotinib 0.02 | [1] 0.011 | dasatinib 0.015 | [2] -0.015 | [3] -0.026 | quisinostat 0.107 | tipifarnib 0.002 | [4] -0.011 | [5] -0.005 | [6] 0.001

USP36 (UniProt Q9P275)
inactive: nilotinib 0.258 | [1] -0.002 | [2] -0.092 | quisinostat -0.019 | tipifarnib -0.262 | [4] 0.067 | [5] 0.06

VGLL4 isoform 4 (UniProt Q14135)
inactive: nilotinib 0.006 | [1] -0.003 | dasatinib 0.118 | [2] -0.036 | [3] -0.024 | quisinostat -0.014 | tipifarnib 0.021 | [4] -0.051 | [6] 0.034

UQCC2 (UniProt Q9BRT2)
inactive: nilotinib -0.018 | [1] -0.006 | dasatinib 0.002 | [2] 0.012 | [3] -0.001 | quisinostat 0 | tipifarnib 0.058 | [4] -0.076 | [5] -0.005 | [6] 0.018

VAPA isoform 2 (UniProt Q9P0L0)
inactive: nilotinib 0.041 | [1] -0.015 | dasatinib 0.015 | [2] -0.002 | [3] -0.027 | quisinostat -0.045 | tipifarnib 0.008 | [4] -0.05 | [5] 0.021 | [6] 0.006

USP6NL isoform 2 (UniProt Q92738)
inactive: nilotinib -0.022 | [1] 0 | [2] -0.065 | quisinostat 0.12 | tipifarnib -0.165 | [4] 0.018 | [5] 0.033

URM1 isoform 2 (UniProt Q9BTM9)
inactive: nilotinib 0.03 | [1] 0.037 | dasatinib -0.026 | [2] 0.15 | [3] 0.044 | tipifarnib -0.044 | [5] 0.028 | [6] -0.066

USP5 isoform 2 (UniProt P45974)
inactive: nilotinib -0.007 | [1] -0.013 | dasatinib 0.023 | [2] 0.003 | [3] -0.003 | quisinostat -0.01 | tipifarnib 0.005 | [4] 0.009 | [5] 0.006 | [6] 0.022
